Measurements: patent US20140363441A1 (priority 2013, published 2014)
Results are given in words; binding and its absence hold for the method and conditions named. Some binding calls cover weakened binding; strength is not graded here.

Protein sequences, listed by entry. Tags and fused reporters are not part of them.
UniProt P06821: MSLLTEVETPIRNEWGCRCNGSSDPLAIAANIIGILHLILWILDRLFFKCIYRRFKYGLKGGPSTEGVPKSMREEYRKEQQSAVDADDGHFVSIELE

How the values were obtained:
[1] = target: influenza A/Puerto Rico/8/34 (PR8) virus particles (M2 protein on the virion) (influenza A virus H1N1 A/Puerto Rico/8/34) (UniProt P06821); assay: ELISA on coated UV-inactivated A/PR/8/34 virus
[2] = target: influenza A/Puerto Rico/8/34 (PR8) virus particles (M2 protein on the virion) (influenza A virus H1N1 A/Puerto Rico/8/34) (UniProt P06821); assay: ELISA on virus, crude supernatant
[3] = target: influenza A/Puerto Rico/8/34 (PR8) virus particles (M2 protein on the virion) (influenza A virus H1N1 A/Puerto Rico/8/34) (UniProt P06821); assay: ELISA on PR8 virus, crude supernatant
[4] = target: influenza A/Puerto Rico/8/34 (PR8) virus particles (M2 protein on the virion) (influenza A virus H1N1 A/Puerto Rico/8/34) (UniProt P06821); assay: ELISA on A/Puerto Rico/8/34 virus
[5] = target: influenza A/Puerto Rico/8/34 (PR8) virus particles (M2 protein on the virion) (influenza A virus H1N1 A/Puerto Rico/8/34) (UniProt P06821); assay: ELISA on purified A/Puerto Rico/8/34 virus coated at 10 µg/ml

Measured: binding

B1: 23K12 (TCN-031) (antibody, V domains shown)
VH: EVQLVESGGGLVQPGGSLRISCAASGFTVSSNYMSWVRQAPGKGLEWVSVIYSGGSTYYADSVKGRFSFSRDNSKNTVFLQMNSLRAEDTAVYYCARCLSRMRGYGLDVWGQGTTVTVS
VL: DIQMTQSPSSLSASVGDRVTITCRTSQSISSYLNWYQQKPGKAPKLLIYAASSLQSGVPSRFSGSGSGTDFTLTISGLQPEDFATYYCQQSYSMPAFGQGTKLEIK
binds: [1] | [2] | [3] | [4] | [5]
